Results deposited as PubChem BioAssay AID1259254 (NCATS, 2017)
Screen: 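Genome-wide screen for genes that prevent DNA re-replication in cancer cells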 (primary screen). Cells: human HCT116 colorectal cancer cells. Reagent: single siRNA against human genes. Timing: 3 days. Read-out: 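Nuclei stained with Hoechst and imaged; cell-cycle phase assigned by DNA content; G2 share scaled per plate, non-targeting siRNA 0%, GMNN siRNA 100%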. Reading the numbers: G2 robust z-score and G2 cells, % of GMNN control: higher = more G2 cells, more excess DNA replication; raw share of cells in G2: higher = larger share of cells with G2 DNA content. Hit rule: 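An siRNA counts as active if its G2 robust z-score lies at least 5 MADs above the screen median; here such calls match roughly 38% of GMNN control or more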.
Shown is an unselected part of about 59,000 reagents tested. Of all reagents, about 1,550 (2.6%) got an active call. 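G2 share is only a proxy for re-replication; each gene was hit by three separate siRNAs, and active genes were retested.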 Raw values vary from plate to plate and are shown uncorrected. Reagents against one gene are numbered here. Reagent sequences are not shown. Not stated in the record: the amount of reagent.

target gene,reagent,G2 robust z-score,"G2 cells, % of GMNN control",raw share of cells in G2 (%),call
ERMN (ermin),1,-0.523,-0.712,4.07,inactive
ERMN (ermin),2,0.795,8.56,8.55,inactive
ERMN (ermin),3,0.306,5.12,4.65,inactive
TRMT5 (tRNA methyltransferase 5),1,-0.994,-4.03,3.98,inactive
TRMT5 (tRNA methyltransferase 5),2,0.011,3.04,5.42,inactive
TRMT5 (tRNA methyltransferase 5),3,3.08,24.7,13.2,inactive
DPPA2 (developmental pluripotency associated 2),1,-0.753,-2.33,3.05,inactive
DPPA2 (developmental pluripotency associated 2),2,-0.512,-0.633,2.72,inactive
DPPA2 (developmental pluripotency associated 2),3,-0.826,-2.85,2.08,inactive
ZNF549 (zinc finger protein 549),1,0.73,8.1,5.88,inactive
ZNF549 (zinc finger protein 549),2,1.38,12.7,7.57,inactive
ZNF549 (zinc finger protein 549),3,0.445,6.1,5.66,inactive
"PLOD2 (procollagen-lysine,2-oxoglutarate 5-dioxygenase 2)",1,-0.948,-3.7,3.7,inactive
"PLOD2 (procollagen-lysine,2-oxoglutarate 5-dioxygenase 2)",2,-0.421,0.00584,4.68,inactive
"PLOD2 (procollagen-lysine,2-oxoglutarate 5-dioxygenase 2)",3,-0.681,-1.82,3.54,inactive
LGALS9B (galectin 9B),1,4.68,35.9,14.2,inactive
LGALS9B (galectin 9B),2,1.4,12.8,8.31,inactive
LGALS9B (galectin 9B),3,-0.657,-1.66,2.4,inactive
MFHAS1 (multifunctional ROCO family signaling regulator 1),1,-1.44,-7.18,3.35,inactive
MFHAS1 (multifunctional ROCO family signaling regulator 1),2,-0.631,-1.47,4.65,inactive
MFHAS1 (multifunctional ROCO family signaling regulator 1),3,-0.878,-3.21,2.65,inactive
NGEF (neuronal guanine nucleotide exchange factor),1,0.681,7.76,7.33,inactive
NGEF (neuronal guanine nucleotide exchange factor),2,2.07,17.5,11.5,inactive
NGEF (neuronal guanine nucleotide exchange factor),3,-0.891,-3.3,2.15,inactive
FKBP1B (FKBP prolyl isomerase 1B),1,3.5,27.6,15.3,inactive
FKBP1B (FKBP prolyl isomerase 1B),2,0.112,3.76,5,inactive
FKBP1B (FKBP prolyl isomerase 1B),3,0.336,5.33,7.29,inactive
POLR3C (RNA polymerase III subunit C),1,2.74,22.3,15.4,inactive
POLR3C (RNA polymerase III subunit C),2,-0.998,-4.06,2.53,inactive
POLR3C (RNA polymerase III subunit C),3,1.64,14.5,12.2,inactive
